# Measured values as given in paper PMC6606611, “A comparative analysis of secreted protein disulfide isomerases from the tropical co-endemic parasites Schistosoma mansoni and Leishmania major” (Scientific Reports, 2019).
# By UniProt entry, the sequences of proteins in these tests, tags left out. Where a name states a change or a piece, a line headed by the entry shows the natural chain unless it says otherwise. Residues count along the entry.
# UniProt P00747: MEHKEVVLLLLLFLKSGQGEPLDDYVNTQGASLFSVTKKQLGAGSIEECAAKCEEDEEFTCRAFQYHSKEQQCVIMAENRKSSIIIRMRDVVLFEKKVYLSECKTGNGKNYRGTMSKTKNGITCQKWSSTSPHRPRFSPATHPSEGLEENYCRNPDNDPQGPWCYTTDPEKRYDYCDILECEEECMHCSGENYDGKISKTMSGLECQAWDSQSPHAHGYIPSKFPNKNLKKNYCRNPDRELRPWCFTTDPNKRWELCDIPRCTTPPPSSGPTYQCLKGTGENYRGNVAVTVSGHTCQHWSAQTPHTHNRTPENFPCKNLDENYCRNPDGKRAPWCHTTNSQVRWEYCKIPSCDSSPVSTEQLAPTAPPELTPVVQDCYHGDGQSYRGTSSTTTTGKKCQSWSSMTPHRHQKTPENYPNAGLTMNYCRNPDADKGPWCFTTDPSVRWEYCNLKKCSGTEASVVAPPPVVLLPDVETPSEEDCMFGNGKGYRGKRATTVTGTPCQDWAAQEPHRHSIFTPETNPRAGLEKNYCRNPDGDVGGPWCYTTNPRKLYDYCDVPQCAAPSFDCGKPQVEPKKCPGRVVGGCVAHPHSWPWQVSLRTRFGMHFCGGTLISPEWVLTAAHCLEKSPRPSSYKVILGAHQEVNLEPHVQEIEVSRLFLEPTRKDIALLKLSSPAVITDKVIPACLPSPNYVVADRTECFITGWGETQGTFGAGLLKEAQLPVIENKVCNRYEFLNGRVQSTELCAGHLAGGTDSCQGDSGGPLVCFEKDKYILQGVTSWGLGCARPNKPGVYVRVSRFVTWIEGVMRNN
# UniProt P04004, residues 20-478: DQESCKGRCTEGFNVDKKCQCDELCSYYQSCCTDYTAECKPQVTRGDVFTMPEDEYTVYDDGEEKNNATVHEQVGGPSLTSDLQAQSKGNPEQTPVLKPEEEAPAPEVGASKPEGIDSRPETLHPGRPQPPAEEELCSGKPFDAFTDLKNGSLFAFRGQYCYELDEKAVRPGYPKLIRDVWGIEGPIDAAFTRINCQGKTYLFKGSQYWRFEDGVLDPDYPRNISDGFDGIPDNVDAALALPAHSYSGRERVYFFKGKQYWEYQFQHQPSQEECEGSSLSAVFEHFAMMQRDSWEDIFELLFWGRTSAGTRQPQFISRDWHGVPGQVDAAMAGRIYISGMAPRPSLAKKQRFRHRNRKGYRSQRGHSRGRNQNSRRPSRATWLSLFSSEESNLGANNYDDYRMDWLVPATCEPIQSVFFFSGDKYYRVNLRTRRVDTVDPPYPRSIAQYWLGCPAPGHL
# UniProt Q9H6X2, residues 33-321: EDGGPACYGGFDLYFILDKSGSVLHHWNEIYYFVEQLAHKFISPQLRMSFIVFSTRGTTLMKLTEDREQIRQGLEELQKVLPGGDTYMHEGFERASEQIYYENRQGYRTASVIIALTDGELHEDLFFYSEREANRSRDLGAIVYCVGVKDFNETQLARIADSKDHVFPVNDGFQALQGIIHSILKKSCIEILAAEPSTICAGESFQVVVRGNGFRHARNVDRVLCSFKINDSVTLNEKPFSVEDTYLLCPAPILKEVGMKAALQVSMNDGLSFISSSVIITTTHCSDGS
# UniProt P15502, residues 27-786: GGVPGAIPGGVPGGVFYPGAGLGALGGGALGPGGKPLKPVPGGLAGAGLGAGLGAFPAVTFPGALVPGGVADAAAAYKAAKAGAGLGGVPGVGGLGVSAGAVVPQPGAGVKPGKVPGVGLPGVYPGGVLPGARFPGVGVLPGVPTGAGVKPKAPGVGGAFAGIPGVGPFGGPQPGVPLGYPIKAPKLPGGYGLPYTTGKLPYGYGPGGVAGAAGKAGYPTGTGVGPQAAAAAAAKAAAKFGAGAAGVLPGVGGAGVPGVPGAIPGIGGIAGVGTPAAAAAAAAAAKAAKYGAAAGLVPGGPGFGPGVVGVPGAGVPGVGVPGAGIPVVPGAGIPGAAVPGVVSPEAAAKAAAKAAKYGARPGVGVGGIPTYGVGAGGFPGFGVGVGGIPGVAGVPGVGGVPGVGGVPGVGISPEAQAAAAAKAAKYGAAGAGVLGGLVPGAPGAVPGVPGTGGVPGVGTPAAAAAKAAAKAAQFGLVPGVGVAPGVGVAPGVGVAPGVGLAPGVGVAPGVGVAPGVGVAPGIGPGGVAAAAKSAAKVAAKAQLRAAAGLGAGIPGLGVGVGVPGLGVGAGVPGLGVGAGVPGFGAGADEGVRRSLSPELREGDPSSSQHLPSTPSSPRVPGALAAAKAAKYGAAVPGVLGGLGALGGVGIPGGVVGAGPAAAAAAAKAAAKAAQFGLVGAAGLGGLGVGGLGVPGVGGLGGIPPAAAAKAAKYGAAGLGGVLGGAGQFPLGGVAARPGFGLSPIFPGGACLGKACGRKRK
# UniProt P07996, residues 19-1170: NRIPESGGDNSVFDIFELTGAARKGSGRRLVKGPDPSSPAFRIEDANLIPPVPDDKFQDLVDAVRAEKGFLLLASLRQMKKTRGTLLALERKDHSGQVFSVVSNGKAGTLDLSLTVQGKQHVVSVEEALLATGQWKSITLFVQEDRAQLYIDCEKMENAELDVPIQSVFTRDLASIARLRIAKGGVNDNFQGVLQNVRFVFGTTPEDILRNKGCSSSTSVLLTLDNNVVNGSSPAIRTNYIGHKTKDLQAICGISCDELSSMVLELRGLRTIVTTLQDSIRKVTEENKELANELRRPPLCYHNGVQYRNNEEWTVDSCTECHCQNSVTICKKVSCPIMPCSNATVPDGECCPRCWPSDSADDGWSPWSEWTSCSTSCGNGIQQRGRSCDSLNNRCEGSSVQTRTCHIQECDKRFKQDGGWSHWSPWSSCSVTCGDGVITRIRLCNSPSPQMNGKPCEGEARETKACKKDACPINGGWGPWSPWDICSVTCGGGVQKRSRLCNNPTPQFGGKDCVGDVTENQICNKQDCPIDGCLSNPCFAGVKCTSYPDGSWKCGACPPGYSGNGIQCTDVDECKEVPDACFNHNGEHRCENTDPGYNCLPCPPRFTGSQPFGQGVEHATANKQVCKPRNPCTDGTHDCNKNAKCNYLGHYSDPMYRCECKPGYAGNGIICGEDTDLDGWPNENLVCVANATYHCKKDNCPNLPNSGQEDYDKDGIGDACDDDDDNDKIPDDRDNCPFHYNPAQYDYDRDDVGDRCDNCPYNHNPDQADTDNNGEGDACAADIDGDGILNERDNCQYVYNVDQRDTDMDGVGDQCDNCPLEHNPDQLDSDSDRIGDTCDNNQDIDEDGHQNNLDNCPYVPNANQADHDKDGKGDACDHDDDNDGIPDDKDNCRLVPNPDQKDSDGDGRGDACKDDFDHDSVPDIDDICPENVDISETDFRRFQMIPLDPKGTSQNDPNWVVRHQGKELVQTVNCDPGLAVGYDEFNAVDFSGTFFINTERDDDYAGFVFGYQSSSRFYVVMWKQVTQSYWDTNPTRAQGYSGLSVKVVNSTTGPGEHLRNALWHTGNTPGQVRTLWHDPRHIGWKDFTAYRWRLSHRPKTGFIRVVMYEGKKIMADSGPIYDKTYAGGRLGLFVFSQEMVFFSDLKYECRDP
# UniProt P38658: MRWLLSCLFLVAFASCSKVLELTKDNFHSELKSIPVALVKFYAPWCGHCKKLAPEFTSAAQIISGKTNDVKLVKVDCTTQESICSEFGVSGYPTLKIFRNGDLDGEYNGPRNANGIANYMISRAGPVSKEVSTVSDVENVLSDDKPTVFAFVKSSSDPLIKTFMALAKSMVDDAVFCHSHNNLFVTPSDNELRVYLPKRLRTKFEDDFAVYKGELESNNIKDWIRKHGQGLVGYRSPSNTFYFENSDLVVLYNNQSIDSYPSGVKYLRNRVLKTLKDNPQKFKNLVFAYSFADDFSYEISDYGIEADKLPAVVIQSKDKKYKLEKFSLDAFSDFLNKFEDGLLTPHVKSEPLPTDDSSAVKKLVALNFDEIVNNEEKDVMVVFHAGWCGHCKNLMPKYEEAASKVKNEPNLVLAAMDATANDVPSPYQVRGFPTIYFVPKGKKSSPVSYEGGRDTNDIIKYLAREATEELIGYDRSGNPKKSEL
# Tests used:
# Assay in all cases: SPR; both purified
# Plasminogen (human) = Plasminogen (human) (UniProt P00747)
# vitronectin = vitronectin (UniProt P04004)
# [1] = molecular target: ectodomain of the tumor endothelial marker 8 (TEM-8), also known as anthrax receptor 1 (human) (UniProt Q9H6X2)
# Tropoelastin (human) = Tropoelastin (human) (UniProt P15502)
# thrombospondin-1 = thrombospondin-1 (UniProt P07996)
Substance,binding (Plasminogen (human)),binding (vitronectin),binding [1],binding (Tropoelastin (human)),binding (thrombospondin-1)
Leishmania major Protein Disulfide Isomerase (from UniProt Q8I8E1) (enzyme),no binding (tested: 500 nM),no binding (tested: 500 nM),no binding (tested: 500 nM),no binding (tested: 500 nM),no binding (tested: 500 nM)
Schistosoma mansoni Endoplasmic Reticulum protein 60 (protein disulfide isomerase) (from UniProt P38658) (enzyme),binds,no binding (tested: 500 nM),binds,binds,no binding (tested: 500 nM)

# These are yes or no findings as the source states them, for the method shown. For some of these results: Binding can be weak; no strength is given.
